{"source": "patent US6482255B1", "about": "“Disazodyes for ink jet printing” (Avecia Limited, priority 1997, dated 2002)", "assay": "Light-fastness of ink jet prints (ΔE / optical density loss after irradiation in Atlas Weatherometer)", "method": "The reflected optical density (ROD) and light-fastness (ΔE) were measured as described in Example 1.\nThe ratio of Dyes (A), (B) and (C) in Example 4 may be varied by altering the time and temperature of the ethanolamine condensation step (Example 1, step (iv)). The solubility of a variety of dye compositions in water at 20° C. and pH 9.5 is shown in Table 2 below together with optical density, light fastness (ΔE after 50 hours) and wet-fastness results of prints prepared from these compositions. The prints were prepared by printing an ink formed by dissolving 2.5 parts of each composition in 97.5 parts of a mixture consisting of 88 parts water, 5 parts thiodiglycol, 5 parts 2-pyrrolidone and 2 parts Surfynol 465™ (a non-ionic surfactant) onto the substrate shown in the third column of Table 2 using a Canon 4300 ink jet printer.", "data": [{"smiles": "CNCCCNc1nc(NCCO)nc(Nc2ccc(/N=N/c3c(N)ccc4cc(S(=O)(=O)O)cc(O)c34)c(S(=O)(=O)O)c2)n1", "note": "[Dye (1)]", "values": [{"measurement": "Light-fastness (ΔE @ 50 hrs)", "setting": "Substrate SG = Seiko Epson glossy film", "result": 6}, {"measurement": "Light-fastness (ΔE @ 50 hrs)", "setting": "Substrate XA = Xerox 4024 Acid Paper", "result": 6.2}]}]}
